Primary screen of a compound library

Amino acid sequences for entries named in this document (tags omitted).
UniProt E9BF75, entry or part of it: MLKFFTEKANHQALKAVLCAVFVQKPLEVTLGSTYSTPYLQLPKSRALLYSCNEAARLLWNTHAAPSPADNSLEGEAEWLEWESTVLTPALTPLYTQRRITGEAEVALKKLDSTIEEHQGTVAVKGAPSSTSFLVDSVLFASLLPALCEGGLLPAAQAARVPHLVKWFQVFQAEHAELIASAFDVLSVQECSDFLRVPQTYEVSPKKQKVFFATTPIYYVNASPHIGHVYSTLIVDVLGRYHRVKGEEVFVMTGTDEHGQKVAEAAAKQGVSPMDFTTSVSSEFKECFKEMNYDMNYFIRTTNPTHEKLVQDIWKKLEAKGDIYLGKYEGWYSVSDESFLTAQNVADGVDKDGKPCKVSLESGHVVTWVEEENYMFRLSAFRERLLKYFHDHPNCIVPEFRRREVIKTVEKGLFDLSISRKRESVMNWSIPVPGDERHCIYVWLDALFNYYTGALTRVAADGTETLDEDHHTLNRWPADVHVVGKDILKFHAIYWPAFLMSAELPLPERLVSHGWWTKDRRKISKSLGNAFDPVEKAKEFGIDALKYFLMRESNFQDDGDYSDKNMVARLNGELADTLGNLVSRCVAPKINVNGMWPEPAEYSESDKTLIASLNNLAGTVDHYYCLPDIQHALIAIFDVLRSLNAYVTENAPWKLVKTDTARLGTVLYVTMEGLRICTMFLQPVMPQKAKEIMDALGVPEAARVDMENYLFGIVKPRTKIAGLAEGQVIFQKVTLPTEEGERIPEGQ

Measurements from “University of Dundee, Small-Polar-MMV Screening Library” (2021), ChEMBL document CHEMBL3988442.

Results are percentages, as filed.
The controls that fix the scale are not given in the record; negative values are as filed.
The compounds are a random part of those screened.

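Primary screen of methionyl-tRNA synthetase; the read-out is not stated. Target: Methionyl-tRNA synthetase (putative), Leishmania donovani (UniProt E9BF75). The test concentration is not given. Values are per cent inhibition. Size under these conditions: about 68,000 compounds, about 24 of them at 50% or above in at least one test.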

With CN1CCCc2cc(NC(=O)N3CCOC(C(N)=O)C3)ccc21 (stereo not shown) the screen gave 20.5%. With O=c1[nH]c(C2CCOC2)nc2ccc(Br)cc12 (stereo not shown) the screen gave 7.784%. Cn1c(C(=O)N2CCC(C(N)=O)C2)c(Cl)c2ccccc21 (stereo not shown) gave 19.93%. Cn1ncnc1NS(=O)(=O)c1ccccc1 gave 12.11%. O=C(Cn1ccnc1)N1CC[C@H](Oc2cccc(F)c2)[C@@H](O)CC1 read 7.558%. With OCc1cn(Cc2cccc(F)c2)nn1 the screen gave 14.02%. Result for CCN(CC)c1nc(Nc2cccc(C(=O)O)c2)nc2ccccc12 was 7.082%. CS(=O)(=O)CCCNCc1c(Cl)cccc1N1CCCC1 gave 17.16%.

CSc1ncc(CN(C)C(C)c2cccnc2)cn1 (stereo not shown) gave 16.08%. Result for CC[C@H](N)Cn1nc(-c2cccs2)oc1=O was 11.3%. CS(=O)(=O)N1CC[C@@H]2[C@@H](CCC(=O)N2CCC2=CCCCC2)C1 gave 2.793%. Result for CN(C)c1ncccc1C(=O)N1CCN(C2=NCC(C)(C)S2)CC1 was 9.777%. With CCCNC(=O)C1CCN(Cc2csc(C(C)C)n2)CC1 the screen gave 9.859%. Result for CCc1nc(C(=O)N(CC)CC(=O)N(C)C)nn1-c1ccccc1Cl was 12.53%. With Cc1cnc(C2(C)CCN(Cc3csc(C)n3)CC2)s1 the screen gave 19.35%. Cc1ccc(CN2CCC3(CC2)CN(c2cnn(C)c2)C(=O)CO3)o1 gave 21.04%.

Result for O=C(Nc1nncs1)NC1CCN(Cc2ccccc2)C1 (stereo not shown) was 8.728%. Cc1ccc(CNC(=O)c2ccc(F)cc2)o1 read 16.32%. With Cc1cc(C)c2c(N3CCN(C(=O)N4CCOCC4)CC3)ncnc2n1 the screen gave 10.28%. For Cc1cc(C)c(C(=O)Nc2cccc(CN3CCC(CO)CC3)c2)o1 the result was 11.04%. Result for Cn1cccc1C(=O)N[C@@H]1CN(Cc2ccsc2)[C@@H]2COC[C@@H]21 was 8.148%. CN(Cc1cccnc1)C1CC2(CCN(C(=O)c3cnccn3)CC2)C1 read 8.759%. Cc1cc(Cl)c(C)c(S(=O)(=O)N2CCN(Cc3ccncc3)CC2)c1Cl read 13.62%. Result for Cc1noc(C)c1-c1cncc(C2CCCN2Cc2ncc[nH]2)n1 (stereo not shown) was 11%.

CCC(=O)N(c1ccc(C(=O)OC)cc1C)C(C)C read 5.307%. O=C(N[C@@H]1CNCCC[C@H]1O)c1ccc(OCCN2CCOCC2)cc1 gave 15.93%. O[C@@]1(CN2CCN(Cc3ccncc3)CC2)CCCN2CCCC[C@@H]21 gave 8.505%. With CC(C)COC(=O)N1CC(=O)N(Cc2ccc(Cl)cc2)CC(O)C1 (stereo not shown) the screen gave 13.97%. O=c1[nH]cnc2[nH]c(N3CCNCC3)nc12 read 15.26%. Result for COc1ccc(CC(=O)NC(C)c2nc3cccnc3n2C(C)C)cc1 (stereo not shown) was 9.677%. With CN(CC(=O)N1CCc2[nH]c3ccccc3c2C1)CC1OCCO1 the screen gave 3.927%. CCNC(=O)c1ccc(CNCc2c(C)nn(C)c2N(C)C)cc1 read 11.89%.

For CN1CCC2(CCN(Cc3nccs3)CC2)C1=O the result was 14.66%. For COc1c(C(=O)NCc2cccnc2)nnn1Cc1ccc(C)cc1 the result was 14.52%. CCC(NC(=O)c1cnc(N(C)C)nc1C)c1ccncc1 (stereo not shown) read 20.24%. Result for c1ccc2c(c1)nnn2CCCNC1CCOC2(CCOCC2)C1 (stereo not shown) was 15.22%. With CCN(CC)C(=O)COc1ccnc2cc(OC)ccc12 the screen gave 16.27%. Result for N[C@H]1CN(C(=O)c2ccccc2OCc2ccccc2)C[C@@H]1C1CC1 was 12.06%. O=C(CCc1ccc(Cl)cc1)N1CCC(O)(C(F)(F)F)C1 (stereo not shown) read 8.101%. Cc1cnn(CC2CCCN2C(=O)c2ccc(C(N)=O)cn2)c1 (stereo not shown) read 10.43%.

Result for c1cncc(CN2CC[C@H]3O[C@@H](COCC4CCOCC4)CC[C@H]32)c1 was 11.94%.